Measurements published in patent publication US7319015B2, “Methods and compositions for using alveolar macrophage phospholipase A2” (The Regents of The University of Michigan, priority 2004, dated 2008).

Key:
MDCK cells [1] = test system: MDCK cells
MDCK cells [2] = settings: MDCK cells treated at the IC50 for transacylase inhibition, 7 days, FIG. 2

total phospholipid content (MDCK cells [1]; MDCK cells incubated for up to 7 days, 15 μM, FIG. 1B): comparable but greater increases
total phospholipid content (figure legend) (MDCK cells [1]; MDCK cells, 7-day exposure to 15 mM, FIG. 1B): greater level of total phospholipid
content of phosphatidylethanolamine and phosphatidylcholine (MDCK cells [1]; MDCK cells, time-dependent changes, FIG. 1C/1D): increased
SMILES: CCCCc1oc2ccccc2c1C(=O)c1cc(I)c(OCCN(CC)CC)c(I)c1 [Amiodarone, amiodarone]
lysosomal phospholipid inclusions by electron microscopy (MDCK cells [2]): obvious lysosomal phospholipid inclusions
